Measurements as given in publication PMC11946513, “Modulation of the substrate preference of a MYST acetyltransferase by a scaffold protein” (The Journal of Biological Chemistry, 2025).
No constants are given. Whether binding was seen depends on the method and setting. Some results given as binding are weak or reduced against the parent protein; the word gives no strength.

By UniProt entry, the sequences of proteins in these tests, tags left out. Where a name states a change or a piece, a line headed by the entry shows the natural chain unless it says otherwise. Chains listed by the source or under a name are the forms on record and can include a tag or linker. Residues count along the entry.
UniProt Q92794: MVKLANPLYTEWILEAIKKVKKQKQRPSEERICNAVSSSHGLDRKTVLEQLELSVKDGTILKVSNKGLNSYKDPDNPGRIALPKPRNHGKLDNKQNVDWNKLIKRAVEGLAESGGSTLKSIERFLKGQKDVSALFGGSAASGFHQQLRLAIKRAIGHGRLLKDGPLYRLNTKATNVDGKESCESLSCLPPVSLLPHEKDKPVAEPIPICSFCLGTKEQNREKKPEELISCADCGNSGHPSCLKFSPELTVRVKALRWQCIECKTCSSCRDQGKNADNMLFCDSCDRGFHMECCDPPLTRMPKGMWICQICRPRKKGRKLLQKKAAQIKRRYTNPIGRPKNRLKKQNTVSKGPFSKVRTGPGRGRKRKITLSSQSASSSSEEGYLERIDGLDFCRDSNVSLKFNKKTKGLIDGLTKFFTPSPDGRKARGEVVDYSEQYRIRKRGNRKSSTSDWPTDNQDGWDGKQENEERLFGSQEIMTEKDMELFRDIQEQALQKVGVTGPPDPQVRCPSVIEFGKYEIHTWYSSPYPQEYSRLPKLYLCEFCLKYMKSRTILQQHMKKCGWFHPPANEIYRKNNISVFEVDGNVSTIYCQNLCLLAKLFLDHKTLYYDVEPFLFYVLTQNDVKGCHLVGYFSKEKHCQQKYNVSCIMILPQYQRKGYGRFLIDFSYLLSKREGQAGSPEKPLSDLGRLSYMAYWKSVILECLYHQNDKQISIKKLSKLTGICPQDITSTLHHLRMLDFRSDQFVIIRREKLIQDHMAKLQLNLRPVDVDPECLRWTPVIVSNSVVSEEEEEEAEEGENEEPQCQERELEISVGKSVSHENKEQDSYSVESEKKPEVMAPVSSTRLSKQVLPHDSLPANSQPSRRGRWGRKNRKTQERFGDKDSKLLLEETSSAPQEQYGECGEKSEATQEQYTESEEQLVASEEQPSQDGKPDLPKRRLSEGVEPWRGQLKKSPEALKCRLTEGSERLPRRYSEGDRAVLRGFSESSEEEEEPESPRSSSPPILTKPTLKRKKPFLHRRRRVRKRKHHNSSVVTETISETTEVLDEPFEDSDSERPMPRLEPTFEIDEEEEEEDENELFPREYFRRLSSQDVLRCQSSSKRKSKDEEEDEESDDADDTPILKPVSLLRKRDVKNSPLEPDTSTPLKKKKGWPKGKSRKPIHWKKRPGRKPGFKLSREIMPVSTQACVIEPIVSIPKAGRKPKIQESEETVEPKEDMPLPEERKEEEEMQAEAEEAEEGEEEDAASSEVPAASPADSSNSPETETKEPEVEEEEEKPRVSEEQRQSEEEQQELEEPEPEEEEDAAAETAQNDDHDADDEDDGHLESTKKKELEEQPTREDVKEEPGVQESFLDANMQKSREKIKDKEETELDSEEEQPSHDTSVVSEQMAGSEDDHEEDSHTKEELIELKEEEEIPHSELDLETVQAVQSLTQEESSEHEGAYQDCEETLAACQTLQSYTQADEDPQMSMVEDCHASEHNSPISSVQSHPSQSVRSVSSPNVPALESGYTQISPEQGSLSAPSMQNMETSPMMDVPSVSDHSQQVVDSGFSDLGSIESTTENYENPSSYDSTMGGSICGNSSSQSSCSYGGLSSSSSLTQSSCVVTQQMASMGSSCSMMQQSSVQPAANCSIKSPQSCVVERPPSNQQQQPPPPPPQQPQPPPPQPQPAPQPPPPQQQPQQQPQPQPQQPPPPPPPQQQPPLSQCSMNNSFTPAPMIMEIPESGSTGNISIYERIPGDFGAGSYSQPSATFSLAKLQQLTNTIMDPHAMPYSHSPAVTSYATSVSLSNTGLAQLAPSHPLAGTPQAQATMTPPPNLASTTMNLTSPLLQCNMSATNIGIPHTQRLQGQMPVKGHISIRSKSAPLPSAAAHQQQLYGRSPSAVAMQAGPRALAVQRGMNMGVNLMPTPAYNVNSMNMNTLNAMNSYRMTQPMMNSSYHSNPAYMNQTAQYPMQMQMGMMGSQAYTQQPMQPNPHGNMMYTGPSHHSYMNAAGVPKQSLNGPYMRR
Flag-MYST (KAT6A MYST domain with Flag tag): residues 501-784 of Q92794

Tests used:
[1] = target: full-length KAT6A (KAT6A^FL) (human) (UniProt Q92794); assay: co-purification (anti-Flag resin, then gel filtration); proteins co-expressed in Sf21 cells by co-infection with baculoviruses; Flag on KAT6A^FL or MYST; 4 °C; lysis in 50 mM Tris pH 8.0, 250 mM NaCl, 0.25 mM TCEP; gel filtration in 25 mM HEPES pH 7.5, 250 mM NaCl, 0.25 mM TCEP
[2] = target: Flag-MYST (KAT6A MYST domain with Flag tag) (human) (UniProt Q92794); assay: as above

Row | Substance | binding [1] | binding [2]
1 | BRPF1 (bromodomain and PHD finger-containing protein 1) (from UniProt P55201-1 1-1214) | binds | binds
2 | ING5 (inhibitor of growth 5) (from UniProt Q8WYH8-1 1-240) | binds | –
